US20070099871A1, “Bioreductively-activated prodrugs” (ANGIOGENE PHARMACEUTICALS LIMITED, priority 2003, published 2007)

Test: Steady state radiolysis: drug release after one-electron reduction
Conditions: isopropanol/water 50:50, N2O-saturated, 60Co 3.9 Gy min^−1, released drug by HPLC

Row | Structure (SMILES) | Radiation chemical yield G, drug released Combretastatin A4 [µmol/J] | other results
1 | COc1ccc(/C=C\c2cc(OC)c(OC)c(OC)c2)cc1OC(C)(C)c1ccc([N+](=O)[O-])cc1 [Example 2] | 0.16 | –
2 | CC(C)(Sc1ncnc2[nH]cnc12)c1ccc([N+](=O)[O-])cc1 [Example 4, 6-(2-(4-nitrophenyl)propan-2-ylsulfanyl)-9H-purine] | – | Radiation chemical yield G, drug released 6-Mercaptopurine: 0.44 µmol/J
3 | CCOC(=O)C(C)(Oc1cc(/C=C\c2cc(OC)c(OC)c(OC)c2)ccc1OC)c1ccc([N+](=O)[O-])s1 (stereo not shown) [Example 9, 1-(3-(1-Ethoxycarbonyl-1-(5-nitrothien-2-yl)ethoxy)-4-methoxy-phenyl)-2-(3,4,5-trimethoxyphenyl)-Z-ethene] | 0.50 | –
4 | CC(C)(OC(=O)Nc1ccn([C@@H]2O[C@H](CO)[C@@H](O)[C@@H]2O)c(=O)n1)c1ccc([N+](=O)[O-])s1 [Example 8, N^4-(2-(5-nitrothien-2-yl)prop-2-yl)oxycarbonyl-1-β-D-arabiuofuranosylcytosine] | – | Radiation chemical yield G, drug released Cytarabine: 0.38 µmol/J
5 | COc1ccc(/C=C\c2cc(OC)c(OC)c(OC)c2)cc1OC(=O)OC1(c2ccc([N+](=O)[O-])s2)CCN(C)CC1 [Example 5, 1-(4-Methoxy-3-(1-methyl-4-(5-nitrothien-2-yl)piperidin-4-yl)oxycarbonyloxy)phenyl-2-(3,4,5-trimethoxy)phenyl-Z-ethene] | 0.46 | –
6 | COc1ccc(/C=C\c2cc(OC)c(OC)c(OC)c2)cc1OC(C)(C)c1ccc([N+](=O)[O-])s1 [Example 1] | 0.36 | –
7 | COc1ccc(/C=C\c2cc(OC)c(OC)c(OC)c2)cc1OC(C)(C)c1cnc([N+](=O)[O-])n1C [Example 6] | 0.07 | –
